Measurements reported in publication PMC4128046, “Effect of a toggle switch mutation in TM6 of the human adenosine A3 receptor on Gi protein-dependent signalling and Gi-independent receptor internalization” (British Journal of Pharmacology, 2014).
Substitutions are numbered along the chain they refer to. Results are given in words; binding and its absence hold for the method and conditions named. In cells and extracts the contact can be indirect. Some results given as binding are weak or reduced against the parent protein; the word gives no strength. Where a sequence is shown, tags or fusion partners need not be part of it.

Assays:
[1] = molecular target: T1, human adenosine A3 receptor W243F (W6.48F) fused to the C-terminal fragment of venus YFP (A3 W243F-vYc) (human) (UniProt P0DMS8); experiment: split reporter; live-cell confocal imaging (Zeiss 710) of stable CHO cells co-expressing receptor-vYc and β-arrestin2-vYnL; no agonist (control), or 10 μM NECA or 10 μM HEMADO for 60 min at 37°C, in HBSS
T1 sequence: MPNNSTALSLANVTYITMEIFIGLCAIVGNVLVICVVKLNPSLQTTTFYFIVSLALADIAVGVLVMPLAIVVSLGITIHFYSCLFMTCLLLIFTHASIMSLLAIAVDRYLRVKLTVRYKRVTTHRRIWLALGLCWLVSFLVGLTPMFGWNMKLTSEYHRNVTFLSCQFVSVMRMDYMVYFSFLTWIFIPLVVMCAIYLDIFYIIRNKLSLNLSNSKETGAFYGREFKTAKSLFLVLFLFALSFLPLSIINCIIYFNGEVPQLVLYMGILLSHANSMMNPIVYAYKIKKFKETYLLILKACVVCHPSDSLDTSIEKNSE

[2] = molecular target: T2, human adenosine A3 receptor fused to the C-terminal fragment of venus YFP (A3-vYc) (human) (UniProt P0DMS8); experiment: as above
T2 sequence: T1 sequence with F243W

Q: Which binding [1] does the source give for “β-arrestin2 fused to the N-terminal fragment of venus YFP (β-arrestin2-vYnL) (from UniProt P32121 1-409)” here?
A: binds

Q: What about the binding [2] of the same substance?
A: binds
